# From the supplement of paper PMC8728848
# This is one part of the list.
# B1: Sp8391B-bot-388-20-388 (Bacteroides ovatus) (protein)
# chain: GCQNNDENEQHYDNKLFISASNFTKEILFKAGDTNVETGLSVAIAKPEEHDIKVTMSPAPELLSTYKLAYYDETAVLLSEEHYSMPETSTTIKSGSIVSPELPIEFINTGELDIKTTYVLPVTIKSVEGIGVLQSAKTYYYVFRGASLINVVCNISRNRAYPDFKNDSKFNNLTENTMEILFKANSFPNTLNTLMGIESNYLLRIGDATIPNNQLQVATSVNNCTSADLQLESGKWYHVAVAFNKGNVKVYINGVEKLSGSTGKSSVSLGAKHTNEEDGSRCFWVGYSYKDDRYFDGVVSEVRIWNRALTAEEIQATNHFYTIEPESEGLIAYWKFDEGSGTVAKDYSVSGYDLTIEKEPKWESVSLPQ
# Columns and labels:
# Test in all cases: glycan array binding signal (z-score within array); higher = stronger binding
# Settings in all cases: glycan notation: IUPAC condensed, linker removed
# [1] = molecular target: Gal(b1-4)GlcNAc(b1-6)GalNAc
# Method in brief: (§1)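 From the Consortium for Functional Glycomics database, 3228 arrays were curated, keeping only those whose protein sequence was available. Binding is given as a within-array Z-score averaged across arrays sharing a protein sequence and across linkers. Negative Z-scores can be read as non-binding.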
# [2] = molecular target: Gal(b1-4)GlcNAc(b1-6)[Gal(b1-3)]GalNAc
# Method in brief: as §1
# [3] = molecular target: Gal(b1-4)GlcNAc(b1-6)[Gal(b1-4)GlcNAc(b1-3)]GalNAc
# Method in brief: as §1
# [4] = molecular target: Gal(b1-4)GlcNAc6P
# Method in brief: as §1
# [5] = molecular target: Gal(b1-6)Gal
# Method in brief: as §1
# [6] = molecular target: Gal3S(b1-3)GalNAc
# Method in brief: as §1
# [7] = molecular target: Gal3S(b1-3)GlcNAc
# Method in brief: as §1
# [8] = molecular target: Gal3S(b1-3)[Fuc(a1-4)]GlcNAc
# Method in brief: as §1
# [9] = molecular target: Gal3S(b1-4)Glc
# Method in brief: as §1
# [10] = molecular target: Gal3S(b1-4)Glc6S
# Method in brief: as §1
# [11] = molecular target: Gal3S(b1-4)GlcNAc
# Method in brief: as §1
# [12] = molecular target: Gal3S(b1-4)[Fuc(a1-3)]Glc6S
# Method in brief: as §1
# [13] = molecular target: Gal3S(b1-4)[Fuc(a1-3)]GlcNAc
# Method in brief: as §1
# [14] = molecular target: Gal3S(b1-4)[Fuc(a1-3)]GlcNAc6S
# Method in brief: as §1
# [15] = molecular target: Gal3S4S(b1-4)GlcNAc
# Method in brief: as §1
# [16] = molecular target: Gal3S6S(b1-4)GlcNAc
# Method in brief: as §1
# [17] = molecular target: Gal3S6S(b1-4)GlcNAc6S
# Method in brief: as §1
# [18] = molecular target: Gal4S(b1-4)GlcNAc
# Method in brief: as §1
# [19] = molecular target: Gal4S6S(b1-4)GlcNAc
# Method in brief: as §1
# [20] = molecular target: Gal6P(b1-4)GlcNAc
# Method in brief: as §1
# [21] = molecular target: Gal6S(b1-3)GlcNAc
# Method in brief: as §1
# [22] = molecular target: Gal6S(b1-3)GlcNAc6S
# Method in brief: as §1
# [23] = molecular target: Gal6S(b1-4)Glc
# Method in brief: as §1
binder,measurement,setting,value
B1,glycan array binding signal (z-score),[1],0.056
same,glycan array binding signal (z-score),[2],-0.289
same,glycan array binding signal (z-score),[3],-0.718
same,glycan array binding signal (z-score),[4],0.015
same,glycan array binding signal (z-score),[5],0.122
same,glycan array binding signal (z-score),[6],-0.809
same,glycan array binding signal (z-score),[7],-0.053
same,glycan array binding signal (z-score),[8],-0.484
same,glycan array binding signal (z-score),[9],0.8
same,glycan array binding signal (z-score),[10],-0.255
same,glycan array binding signal (z-score),[11],0.727
same,glycan array binding signal (z-score),[12],-0.067
same,glycan array binding signal (z-score),[13],0.249
same,glycan array binding signal (z-score),[14],0.804
same,glycan array binding signal (z-score),[15],-0.278
same,glycan array binding signal (z-score),[16],-0.221
same,glycan array binding signal (z-score),[17],-0.031
same,glycan array binding signal (z-score),[18],-0.388
same,glycan array binding signal (z-score),[19],-0.48
same,glycan array binding signal (z-score),[20],-0.405
same,glycan array binding signal (z-score),[21],-0.708
same,glycan array binding signal (z-score),[22],0.217
same,glycan array binding signal (z-score),[23],-0.185

# Pulled one by one from above:
binder,measurement,setting,value
B1,glycan array binding signal (z-score),[18],-0.388
same,glycan array binding signal (z-score),[3],-0.718
